In article doi:10.1101/2020.02.12.945204 (bioRxiv, 2020):
No constants are given. Whether binding was seen depends on the method and setting. Some entries that bind do so weakly or less than the wild type.

By UniProt entry, the sequences of proteins in these tests, tags left out. Residues count along the entry.
UniProt P06179, 2-495: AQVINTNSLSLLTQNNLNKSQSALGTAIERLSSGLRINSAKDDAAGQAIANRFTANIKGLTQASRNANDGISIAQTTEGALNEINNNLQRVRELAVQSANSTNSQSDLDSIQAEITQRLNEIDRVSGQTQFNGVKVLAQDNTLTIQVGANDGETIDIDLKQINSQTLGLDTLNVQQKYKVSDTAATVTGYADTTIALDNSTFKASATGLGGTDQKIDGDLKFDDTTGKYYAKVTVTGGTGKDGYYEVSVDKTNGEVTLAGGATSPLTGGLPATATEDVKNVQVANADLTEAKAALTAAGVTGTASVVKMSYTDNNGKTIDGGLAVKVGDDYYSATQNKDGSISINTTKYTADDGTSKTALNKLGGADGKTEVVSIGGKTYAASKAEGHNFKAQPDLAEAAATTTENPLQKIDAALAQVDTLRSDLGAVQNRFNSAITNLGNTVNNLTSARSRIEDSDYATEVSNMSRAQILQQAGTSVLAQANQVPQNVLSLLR

Assays:
[1] = target: T1, recombinant human galectin-4 (human) (UniProt P56470); assay: ELISA
T1 sequence: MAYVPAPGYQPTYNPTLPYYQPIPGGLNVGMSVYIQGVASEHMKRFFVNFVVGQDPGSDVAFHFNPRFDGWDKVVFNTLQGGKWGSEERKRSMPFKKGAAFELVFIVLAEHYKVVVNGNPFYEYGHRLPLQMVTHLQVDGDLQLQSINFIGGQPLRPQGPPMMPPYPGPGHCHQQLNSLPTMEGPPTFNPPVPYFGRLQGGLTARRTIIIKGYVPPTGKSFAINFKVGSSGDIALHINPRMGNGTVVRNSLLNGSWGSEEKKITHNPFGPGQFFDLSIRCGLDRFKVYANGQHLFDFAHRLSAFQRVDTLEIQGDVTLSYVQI

[2] = target: phase-1 (P1) flagella (polymeric FliC flagellin) from S. Typhimurium SL1344 (S. Typhimurium) (UniProt P06179); assay: SEC

phase-1 (P1) flagella (polymeric FliC flagellin) from S. Typhimurium SL1344 (from UniProt P06179 2-495)
binding [1]: binds
binding [2]: binds
